Consider 41 compounds from the supplement of paper PMC3682954.

The experiment deals with RAW 264.7. Description: HMGB1-induced TNF-alpha production relative to HMGB1-stimulated control; higher = more TNF-alpha secretion (less inhibition). The note with it: stimulus: HMGB1 5 ug/ml, 18 h.
[1] abbreviates: compound concentration: 1 ug/ml.

Structures can show the parent of a compound that is named as a salt. ± gives the standard deviation of the averaged measurements. This is one part of the list. Many values rest on one well or one pass, so single values are uncertain.

`CC(=O)[C@H]1CC[C@H]2[C@@H]3CC[C@H]4C[C@H](O)CC[C@]4(C)[C@H]3C(=O)C[C@]12C` [5alpha-Pregnan-3alpha-ol-11,20-dione]: for the setting “compound concentration: 3 uM”, the “HMGB1-induced TNF-alpha production” value was determined as 102%.
The same measure, in the same setting: then `CC(=O)[C@H]1CC[C@H]2[C@@H]3CC[C@H]4C[C@H](O)CC[C@]4(C)[C@H]3C(=O)C[C@]12C` [Alfaxalone], with 96.1%.
As to `CC(=O)c1c(O)c(C)c(O)c(Cc2c(O)c3c(c(C(=O)/C=C/c4ccccc4)c2O)OC(C)(C)C=C3)c1O` [Rottlerin], the “HMGB1-induced TNF-alpha production” value by setting is: under setting [1], 196%; (compound concentration: 3 uM) 261%.
On to `COc1ccccc1N1CCNCC1` [1-(2-Methoxyphenyl)piperazine hydrochloride], for which the “HMGB1-induced TNF-alpha production” value (compound concentration: 3 uM) came to 113%.
As to `C=C1[C@@H](C)[C@H]2[C@H](Cc3ccccc3)NC(=O)[C@]23[C@H](OC(C)=O)/C=C/[C@@](C)(O)C(=O)[C@@H](C)C/C=C/[C@H]3[C@@H]1O`, the “HMGB1-induced TNF-alpha production” value (compound concentration: 3 uM) is 90.8%.
`O=C(O)c1cc[c]([Hg][Cl])cc1` [4-Chloromercuribenzoic acid]: the “HMGB1-induced TNF-alpha production” value (compound concentration: 3 uM) was determined as 75.4%.
Same read-out and setting: then `FC(F)(F)c1cccc(N2CCNCC2)c1`, with 101%; and `CC1=NN=C(c2ccc(N)cc2)c2cc3c(cc2C1)OCO3`, with 88.1%.
Take `C[C@]12C/C(=C/O)C(=O)C[C@@H]1CC[C@@H]1[C@@H]2CC[C@@]2(C)[C@H]1CC[C@]2(C)O` [Oxymetholone]: the “HMGB1-induced TNF-alpha production” value (compound concentration: 3 uM) was 106%.
The same measure, in the same setting: to `CC(C)=CCC[C@]1(C)C=Cc2c(O)c3c(c(CC=C(C)C)c2O1)O[C@]12C(=C[C@@H]4C[C@H]1C(C)(C)O[C@@]2(C/C=C(/C)C(N)=O)C4=O)C3=O` belongs 53.1%.
With `CCN1CC2(COC(=O)c3ccccc3N3C(=O)CC(C)C3=O)CC[C@H](OC)[C@@]34C5C[C@@H]6[C@@H](OC)C[C@@](O)(C5[C@H]6OC)[C@](O)([C@@H](OC)C23)[C@@H]14.[O-][Cl+3]([O-])([O-])O` (stereo partly drawn), the “HMGB1-induced TNF-alpha production” value under setting [1] stood at 69.4%.
Turning to `CCCC(C)(COC(N)=O)COC(=O)NC(C)C` (stereo not drawn), for the setting “compound concentration: 3 uM”, the “HMGB1-induced TNF-alpha production” value is 93.3%.
On the same count and under the same terms, to `CCCC(C)(COC(N)=O)COC(=O)NC(C)C` (stereo not drawn) [Carisoprodol] belongs 92.1 ± 24%; to `CCC1(C)CC(=O)NC(=O)C1` [Bemegride], 117%.
Take `COC(C)(C)CCC[C@H](C)C/C=C/C(C)=C/C(=O)OC(C)C`: the “HMGB1-induced TNF-alpha production” value (compound concentration: 3 uM) was 65.4 ± 18%.
Still for that read-out and setting: then `C[C@@]12C(=O)OC(=O)[C@]1(C)[C@H]1CC[C@@H]2O1`, with 1.47%.
In the case of `C[C@@]12C(=O)OC(=O)[C@]1(C)[C@H]1CC[C@@H]2O1` [Cantharidin], the “HMGB1-induced TNF-alpha production” value under setting [1] is -2.94% and the “HMGB1-induced TNF-alpha production” value (compound concentration: 3 uM) was found to be 41.9 ± 35%.
For the compound `C/C(O)=C(\C#N)C(=O)Nc1cc(Br)ccc1Br`, the “HMGB1-induced TNF-alpha production” value (compound concentration: 3 uM) was 109%.
Still for that read-out and setting: then `Cl[C@H]1[C@H](Cl)[C@@H](Cl)[C@@H](Cl)[C@H](Cl)[C@H]1Cl`, with 85.1%; and `Oc1ccc(Cl)cc1Cc1cc(Cl)ccc1O`, with 98.1%.
The same measure, in the same setting: then `NC(=O)OCCCc1ccccc1`, with 92.3%.
Same read-out and setting: then `NC1CCc2cc(O)c(O)cc2C1` (stereo not drawn) [6,7-ADTN hydrobromide], with 91.7%; and `N[C@@H]1C[C@H]1c1ccccc1.N[C@H]1C[C@@H]1c1ccccc1` [Tranylcypromine], with 88.5%.
Turning to `N[C@@H]1C[C@H]1c1ccccc1.N[C@H]1C[C@@H]1c1ccccc1`, the “HMGB1-induced TNF-alpha production” value (compound concentration: 3 uM) came out at 94.8%.
Same read-out and setting: to `NC(CP(=O)(O)O)C(=O)O` (racemic) [(±)-2-Amino-3-phosphonopropionic acid] belongs 93.7%.
Regarding `CN1CC2C[C@@H](C1)Cn1c2cccc1=O`, the “HMGB1-induced TNF-alpha production” value under setting [1] is 80.3%.
In the case of `OC(c1ccccc1)(c1ccccc1)C1CCNCC1` [Azacyclonol], under “compound concentration: 3 uM”, the “HMGB1-induced TNF-alpha production” value was determined as 78.2%.
Consider `CC[C@H]1CN2CC[C@H]1C[C@@H]2[C@@H](O)c1ccnc2ccccc12` [Hydrocinchonine], for which, under setting [1], the “HMGB1-induced TNF-alpha production” value came to 47.7%.
Regarding `COc1cc(N)c(Cl)cc1C(=O)NC1CN2CCC1CC2` (stereo not drawn) [Zacopride], where the note is “compound concentration: 3 uM”, the “HMGB1-induced TNF-alpha production” value amounted to 96.3%.
As for `N=C(NCc1ccc(Cl)cc1)SCCCc1c[nH]cn1` [Clobenpropit], the “HMGB1-induced TNF-alpha production” value (compound concentration: 3 uM) was found to be 91.1%.
The same measure, in the same setting: to `C[N+]1(C)CCCC(OC(=O)C(O)(c2ccccc2)c2ccccc2)C1` (stereo not drawn) belongs 85%.
For the compound `C[N+]1(C)CCCC(OC(=O)C(O)(c2ccccc2)c2ccccc2)C1` (stereo not drawn) [Mepenzolate bromide], the “HMGB1-induced TNF-alpha production” value (compound concentration: 3 uM) amounted to 111%.
Still for that read-out and setting: then `C[C@@H]1CN([C@H]2CC[C@](C#N)(c3ccc(F)cc3)CC2)CC[C@]1(C(=O)O)c1ccccc1` [Levocabastine hydrochloride], with 96.7%; and `C[C@@H]1CN([C@H]2CC[C@](C#N)(c3ccc(F)cc3)CC2)CC[C@]1(C(=O)O)c1ccccc1` [Levocabastine], with 79.5%; and `CCCC[N+]1(C)[C@@H]2C[C@@H](OC(=O)[C@H](CO)c3ccccc3)C[C@H]1[C@@H]1O[C@@H]12` (single isomer, unassigned; (-)) [(-)-Scopolamine,n-Butyl-, bromide], with 99.2%.
The same measure, in the same setting: to `c1ccc2sc(C3(N4CCCCC4)CCCCC3)cc2c1` [BTCP hydrochloride] belongs 79%; to `C[N+]1(C)C2CCC1CC(OC(=O)c1c[nH]c3ccccc13)C2` (stereo not drawn) [3-Tropanylindole-3-carboxylate methiodide], 102%.
The same measure, in the same setting: then `COc1cc(CC(C)N)c(OC)cc1I` (racemic) [(±)-DOI hydrochloride], with 87.7%; and `N#C/C(=C\c1ccc(O)c(O)c1)C(N)=S` [Tyrphostin 47], with 105%.
As to `CN1CC(CNC(=O)OCc2ccccc2)CC2c3cccc4c3c(cn4C)CC21` (stereo not drawn) [Metergoline phenylmethyl ester], the “HMGB1-induced TNF-alpha production” value under setting [1] was found to be 72.9%.
For `CCC1(CC)C(=O)NC(=O)NC1=O`, where the note is “compound concentration: 3 uM”, the “HMGB1-induced TNF-alpha production” value was determined as 79.6%.
